Results deposited as PubChem BioAssay AID720505 (Drosophila RNAi Screening Center, 2013).

- Aim: 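Genes needed for store-operated calcium entry in fly cells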 (primary screen)
- System: Drosophila S2R+ cells
- Reagent: long dsRNA against Drosophila genes
- Conditions: thapsigargin (2 µM) in calcium-free buffer to empty internal stores, then 2 mM calcium added back
- Measured: 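Stores emptied by 2 µM thapsigargin without calcium, then 2 mM calcium re-added; fluo-4 fluorescence followed by FLIPR in 384-well plates, per-well averaged endpoint, raw; two screen passes, some wells retested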
- Direction: calcium signal and retest calcium signal: higher = more calcium entry after store depletion
- Hit rule: 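About 1500 genes called as lowering calcium entry, by varying amounts, judged against per-plate control wells with STIM1 as positive and Rho1 as negative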
- Calls: active = called as lowering calcium entry; inactive = not called
The screen tested about 20,000 reagents; this is an unselected part of those with a known target gene and a result. Over the whole deposit, about 2,100 (10%) are marked active. 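Raw plate signals without normalisation; calls rest on control-based scores that were not deposited; replicate 2 separates called from uncalled poorly.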 Unmarked entries are inactive. Names joined by + are all predicted targets of the reagent. The record does not give: the amount of reagent, the time to read-out.

target gene	DRSC id	calcium signal, replicate 1	calcium signal, replicate 2	retest calcium signal, replicate 1	retest calcium signal, replicate 2
CG33460	DRSC05570	106	130		
Frl	DRSC10027	75.7	102		
Frl	DRSC10716	80.1	90.7	6406	105
Spase22-23	DRSC15857	95.6 (active)	223		
tpr	DRSC04468	137	100		
mol	DRSC01431	76.8 (active)	101	74.8	123
mol	DRSC01912	92.2	105		
mol	DRSC02479	77.3	100		
RpL4	DRSC16833	72.5	123		
CG10516	DRSC09738	114	174		
CR32011 + CR32010 + PlexB + 1 more	DRSC21664	118	110		
Drep3	DRSC06312	155	166	9614	140
Drep3	DRSC07529	125	141		
Drep3	DRSC22344	99.3	251		
IntS11	DRSC15407	99.5	137		
Gycbeta100B	DRSC16691	106	93.4		
Fkbp59	DRSC03323	171	174		
CG18081	DRSC10294	80.1	158		
CG3841	DRSC02730	160	168		
CG10317	DRSC14229	104	144		
Spn55B	DRSC07694	158	94.9	109	97.7
Spn55B	DRSC21862	70.8	146		
Alp12	DRSC02515	173	111		
Lsd-1	DRSC14236	222	263		
CG4570	DRSC15602	180	82.3		
CG30008	DRSC21576	184	94.6		
CG1637	DRSC19748	103	83		
CG1637	DRSC19749	70.5 (active)	118		
Cyp6a15Psi	DRSC07377	128	127		
CG3557	DRSC00614	72.4	127		
CG12517	DRSC02173	137	155		
CaBP1	DRSC01984	132	104		
CG34135 + Nasp + CG11768	DRSC14377	133	211		
CG34135 + Nasp + CG11768	DRSC16397	87.2	124		
CG34135 + Nasp + CG11768	DRSC23219	102	148		
Glut4EF	DRSC14347	176	83.8		
Glut4EF	DRSC14512	163	89.7		
Glut4EF	DRSC14541	156	80.6		
Glut4EF	DRSC14542	69.7 (active)	135		
Glut4EF	DRSC14543	57 (active)	138		
Glut4EF	DRSC23038	133	180		
DIP-kappa	DRSC01336	203	87.8		
DIP-kappa	DRSC01337	174	98		
CG7271	DRSC22561	89.3	193		
Grx1	DRSC10727	97.4	147		
Nmdmc	DRSC16760	110	154		
Trs31	DRSC05975	138	122		
CG8927	DRSC16458	124	181		
lncRNA:CR32660	DRSC22965	109	120		
Art4	DRSC15779	168	77		
sca	DRSC07677	96.4	176		
ord	DRSC04706	88.3	156		

9 of these entries, set out differently.
Lsd-1 [DRSC14236]
- calcium signal, replicate 1: 222
- calcium signal, replicate 2: 263

CG4570 [DRSC15602]
- calcium signal, replicate 1: 180
- calcium signal, replicate 2: 82.3

CG30008 [DRSC21576]
- calcium signal, replicate 1: 184
- calcium signal, replicate 2: 94.6

CG1637 [DRSC19748]
- calcium signal, replicate 1: 103
- calcium signal, replicate 2: 83

CG1637 [DRSC19749]
- calcium signal, replicate 1: 70.5 (active)
- calcium signal, replicate 2: 118

Cyp6a15Psi [DRSC07377]
- calcium signal, replicate 1: 128
- calcium signal, replicate 2: 127

CG3557 [DRSC00614]
- calcium signal, replicate 1: 72.4
- calcium signal, replicate 2: 127

CG12517 [DRSC02173]
- calcium signal, replicate 1: 137
- calcium signal, replicate 2: 155

CaBP1 [DRSC01984]
- calcium signal, replicate 1: 132
- calcium signal, replicate 2: 104

The results go on:
target gene	DRSC id	calcium signal, replicate 1	calcium signal, replicate 2	retest calcium signal, replicate 1	retest calcium signal, replicate 2
CG33459	DRSC05615	57 (active)	82.7		
ppk21	DRSC14466	122	108		
CG9902	DRSC20212	136	135		
Efr	DRSC18322	70.8 (active)	235		
Mst57Db	DRSC21551	203	125		
Herp	DRSC02394	137	222		
CG7183	DRSC16210	176	265		
CG9692	DRSC11091	115	122		
AspRS-m	DRSC02646	103	90.2		
CG6878	DRSC10737	101	135		
CG13016	DRSC06271	90.4	146		
Obp50d	DRSC05483	75.9	101		
bcn92	DRSC18741	85.6	126		
RYBP	DRSC04117	124	89		
CG8343	DRSC04905	177	85.4		
bisc	DRSC04083	64.5 (active)	137		
crb	DRSC16927	144	278		
CG31810	DRSC01560	131	85.6		
Hex-t1	DRSC16701	251	147		
CG4970	DRSC02796	143	166		
Ilp2	DRSC10968	105	88.1		
pirk	DRSC04269	200	96.8		
ACXD	DRSC07843	64.9	106		
CG42680	DRSC01399	155	93		
AkhR	DRSC03329	69.2	111		
CG11961	DRSC06099	135	83.4		
Dredd	DRSC18461	130	130		
Sirt6	DRSC16010	117	108		
Pdxk	DRSC10419	102	94.2		
Sec10	DRSC17053	146	166		
Noc3	DRSC12535	88.6	150		
